This assay concerns CD2F1 mice, L1210 leukemia ip, survival T/C. Put plainly: NCI In Vivo Anticancer Drug Screen. Data for tumor model L1210 Leukemia (intraperitoneal) in CD2F1 (CDF1) mice. To be noted: higher T/C = longer survival. Summed up:
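Activity against a transplanted murine tumor was judged by comparing the compound group with a vehicle group. The outcome in the treated animals was divided by that in the controls.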

The mark [1] stands for this setting: T/C endpoint: mean survival time, dose: 50.0 mg/kg/injection, schedule: Q01DX009 (ip), vehicle: water.
Setting [2] is: T/C endpoint: mean survival time, dose: 100.0 mg/kg/injection, schedule: Q01DX009 (ip), vehicle: water.
Where [3] appears, read: T/C endpoint: mean survival time, dose: 200.0 mg/kg/injection, schedule: Q01DX009 (ip), vehicle: water.
Where [4] appears, read: T/C endpoint: mean survival time, dose: 100.0 mg/kg/injection, schedule: Q04DX002 (ip), vehicle: saline with Tween-80.
[5] abbreviates: T/C endpoint: mean survival time, dose: 400.0 mg/kg/injection, schedule: Q04DX002 (ip), vehicle: saline with Tween-80.
[6] abbreviates: T/C endpoint: mean survival time, dose: 200.0 mg/kg/injection, schedule: Q01DX009 (ip), vehicle: saline with Tween-80.
Where [7] appears, read: T/C endpoint: mean survival time, dose: 400.0 mg/kg/injection, schedule: Q01DX009 (ip), vehicle: saline with Tween-80.
[8] abbreviates: T/C endpoint: mean survival time, dose: 400.0 mg/kg/injection, schedule: Q04DX003 (ip), vehicle: saline with Tween-80.
The mark [9] stands for this setting: T/C endpoint: mean survival time, dose: 300.0 mg/kg/injection, schedule: Q01DX009 (ip), vehicle: Klucel (hydroxypropylcellulose) (HPC).

The list shows only some results of the screen, not a fair sample: it gathers tests that were run many times, whatever their T/C, doses with no T/C, and many T/C values between a quarter and a half above the control. Further doses and runs are listed elsewhere. T/C gives the treated animals as a percentage of the vehicle group. Some entries give survivors of the animals treated and no T/C: the source holds a T/C of zero for them, seemingly a mark for toxic or unscored doses. Some doses without a T/C left all or most animals alive at the check, yet need not have been tolerated: survival well below the control is almost never listed, so the zero probably covers shortened survival too. Counts of survivors are from the toxicity check (mostly the fifth day) where no day follows; animals may have died later. Schedules are NCI's codes, read here as Q, the interval in days (D) or hours (H), X, the number of doses. Some entries were tested several times; the results are listed from low to high. Where survival is the endpoint, the PubChem record calls one and a half times the control and up active, and a quarter to a half above the control has no call in these data; cut-offs in other NCI protocols can differ.

Turning to `OCc1cn2c(c1CO)CCC2`, under setting [1], the T/C was 125 % of control. For the same compound, the survivor count under setting [2] is 2 of 6 and the survivor count under setting [3] was 1 of 6.
For `O=C(NC(=S)Nc1cccc2ccccc12)c1cccc(Br)c1`, under setting [4], the T/C is 88, 93, 95 % of control and the survivor count is 6 of 6. For the same compound, the T/C (T/C endpoint: mean survival time, dose: 200.0 mg/kg/injection, schedule: Q04DX002 (ip), vehicle: saline with Tween-80) is given as 86, 91, 102, 115 % of control.
For the compound `O=S1(=O)CC2(OCCO2)C1Cl` (stereo not drawn), the survivor count under setting [5] is given as 0 of 3.
For the compound `O=C(/C=C\c1ccc(NCc2ccc(C(=O)O)cc2)cc1)CCl`, the survivor count (T/C endpoint: mean survival time, dose: 100.0 mg/kg/injection, schedule: Q04DX003 (ip), vehicle: saline with Tween-80) is reported as 6 of 6; the survivor count under setting [6] was 0 of 6; the survivor count under setting [7] is reported as 0 of 6.
As to `CC(CC(C(=O)O)C(=O)O)C(=O)O` (stereo not drawn), under setting [3], the survivor count is given as 6 of 6.
Turning to `CC/C(=N\[N+](C)(C)C)c1ccccc1`, for the setting “T/C endpoint: mean survival time, dose: 75.0 mg/kg/injection, schedule: Q01DX009 (ip), vehicle: saline”, the survivor count is listed as 2 of 6.
Take `C[N+](C)(C)CC(O)c1ccccc1` (stereo not drawn): the survivor count is given as 3 of 6 under setting [6] and 5 of 6 under setting [8].
Take `O=C(CCC(=O)NO)NO`: the survivor count (T/C endpoint: mean survival time, dose: 400.0 mg/kg/injection, schedule: Q04DX002 (ip), vehicle: saline) is reported as 3 of 3.
With `COC(=O)C1(C)CCCC2(C)C3CCC(C)(CCO)C(O)C3CCC12` (stereo not drawn), the survivor count (T/C endpoint: mean survival time, dose: 100.0 mg/kg/injection, schedule: Q01DX001 (ip), vehicle: saline with Tween-80) is reported as 6 of 6; the survivor count (T/C endpoint: mean survival time, dose: 200.0 mg/kg/injection, schedule: Q01DX001 (ip), vehicle: saline with Tween-80) is on record as 6 of 6; the survivor count (T/C endpoint: mean survival time, dose: 400.0 mg/kg/injection, schedule: Q01DX001 (ip), vehicle: saline with Tween-80) is 6 of 6.
Turning to `O=C(Nc1ccccc1CCl)Nc1ccccc1CCl`, the survivor count (T/C endpoint: median survival time, dose: 800.0 mg/kg/injection, schedule: Q01DX005 (ip), vehicle: saline with Tween-80) is recorded as 3 of 5.
For `CCc1cccc[n+]1Cc1ccccc1`, the survivor count is, setting by setting: (T/C endpoint: mean survival time, dose: 12.5 mg/kg/injection, schedule: Q01DX009 (ip), vehicle: saline) 3 of 3; (T/C endpoint: mean survival time, dose: 25.0 mg/kg/injection, schedule: Q01DX009 (ip), vehicle: saline) 3 of 3; (T/C endpoint: mean survival time, dose: 50.0 mg/kg/injection, schedule: Q01DX009 (ip), vehicle: saline) 0 of 3.
For the compound `O=C(c1ccc(-c2ccccc2)cc1)C1C(c2ccccc2)N1C1CCCCC1` (stereo not drawn), the survivor count (T/C endpoint: mean survival time, dose: 200.0 mg/kg/injection, schedule: Q01DX009 (ip), vehicle: other) is listed as 3 of 6.
For the compound `CSc1nc(C)cc(Cl)n1`, under setting [8], the survivor count is 2 of 6.
On to `CCOC(=O)Nc1cc2c(ncn2-c2ccccc2)c(N)n1`, for which the survivor count (T/C endpoint: mean survival time, dose: 400.0 mg/kg/injection, schedule: Q01DX001 (ip), vehicle: Klucel (hydroxypropylcellulose) (HPC)) was 3 of 6.
On to `OC1C2CCN(CC2)C1CN1CC=C(c2ccccc2)CC1` (stereo not drawn), for which the survivor count is, setting by setting: (T/C endpoint: mean survival time, dose: 200.0 mg/kg/injection, schedule: Q04DX003 (ip), vehicle: saline) 1 of 6; (T/C endpoint: mean survival time, dose: 400.0 mg/kg/injection, schedule: Q04DX003 (ip), vehicle: saline) 0 of 6.
As to `CN(C)N=Nc1ccccc1C(=O)NCC(N)=O`, the T/C runs as follows: (T/C endpoint: mean survival time, dose: 75.0 mg/kg/injection, schedule: Q01DX009 (ip), vehicle: Klucel (hydroxypropylcellulose) (HPC)) 128 and 130 % of control; (T/C endpoint: mean survival time, dose: 150.0 mg/kg/injection, schedule: Q01DX009 (ip), vehicle: Klucel (hydroxypropylcellulose) (HPC)) 135 and 140 % of control; under setting [9], 125 % of control. The survivor count under setting [9] is 6 of 6.
Take `CC(=O)OC1CC2CC(C1C)C2(C)C` (stereo not drawn): the survivor count is recorded as 3 of 6 under setting [6] and 0 of 6 under setting [7].
As to `CCCCCCCCCCCCCCCC(=O)N(CCCN(CC)CC)C(C)CCCN(CC)CC` (stereo not drawn), the survivor count was 2 of 6 (T/C endpoint: mean survival time, dose: 12.5 mg/kg/injection, schedule: Q01DX009 (ip), vehicle: water); 0 of 6 and 5 of 6 (T/C endpoint: mean survival time, dose: 25.0 mg/kg/injection, schedule: Q01DX009 (ip), vehicle: water); 2 of 6 under setting [1]; 0 of 6 under setting [2]; 0 of 6 under setting [3]; 0 of 6 (T/C endpoint: mean survival time, dose: 400.0 mg/kg/injection, schedule: Q01DX009 (ip), vehicle: water).
Consider `CCCCCCNc1nc(NCCCCCC)c2[nH]c(NCCCCCC)nc2n1`, for which the survivor count (T/C endpoint: median survival time, dose: 400.0 mg/kg/injection, schedule: Q01DX009 (ip), vehicle: saline with Tween-80) is recorded as 0 of 6.
In the case of `COc1ccc(C(=O)C(C)(C)C)cc1`, the survivor count runs as follows: (T/C endpoint: mean survival time, dose: 50.0 mg/kg/injection, schedule: Q04DX002 (ip), vehicle: saline with Tween-80) 3 of 3; under setting [5], 3 of 3.
`Nc1nc(N)c2nc(CNc3ccc(C(=O)NC(CC(=O)O)C(=O)O)cc3)cnc2n1` (stereo not drawn): the survivor count (T/C endpoint: mean survival time, dose: 400.0 mg/kg/injection, schedule: Q01DX001 (ip), vehicle: saline) was 1 of 6.
Turning to `CC(=O)CC(C)=NCCN=C(C)CC(C)=O.[Pd]`, the survivor count is, setting by setting: (T/C endpoint: mean survival time, dose: 25.0 mg/kg/injection, schedule: Q04DX003 (ip), vehicle: distilled water + Tween-80) 2 of 6; (T/C endpoint: mean survival time, dose: 50.0 mg/kg/injection, schedule: Q04DX003 (ip), vehicle: distilled water + Tween-80) 0 of 6; (T/C endpoint: mean survival time, dose: 100.0 mg/kg/injection, schedule: Q04DX003 (ip), vehicle: distilled water + Tween-80) 0 of 6; (T/C endpoint: mean survival time, dose: 200.0 mg/kg/injection, schedule: Q04DX003 (ip), vehicle: distilled water + Tween-80) 0 of 6.
Turning to `O=P(O)(O)OCC1OC(n2cnc3c(NCc4ccccc4)ncnc32)C(O)C1O` (stereo not drawn), the survivor count (T/C endpoint: mean survival time, dose: 200.0 mg/kg/injection, schedule: Q01DX005 (ip), vehicle: other) is 0 of 6.
For `ClCCCN1CCN(CCCCl)CC1`, the survivor count (T/C endpoint: mean survival time, dose: 200.0 mg/kg/injection, schedule: Q01DX009 (ip), vehicle: distilled water + alcohol) is reported as 0 of 6.
In the case of `CSc1nc(=O)n(C2OC(CO)C(O)C2O)nc1SCc1ccccc1` (stereo not drawn), the survivor count runs as follows: (T/C endpoint: mean survival time, dose: 100.0 mg/kg/injection, schedule: Q01DX005 (ip), vehicle: distilled water + Tween-80) 0 of 6; (T/C endpoint: mean survival time, dose: 200.0 mg/kg/injection, schedule: Q01DX005 (ip), vehicle: distilled water + Tween-80) 0 of 6.
On to `COc1ccc(NC(=O)C2C3C=CC(C3)C2C(=O)O)cc1` (stereo not drawn), for which the survivor count under setting [8] is listed as 6 of 6.
As to `Nc1nc(F)nc2c1ncn2C1OC(CO)C(O)C1O` (stereo not drawn), the T/C (T/C endpoint: mean survival time, dose: 156.0 mg/kg/injection, schedule: Q01DX005 (ip), vehicle: saline with Tween-80) was 149 % of control.

Source of the values: PubChem BioAssay AID256 (DTP/NCI, 2004).
